Patent publication US3950513A, “Process of stabilizing therapeutically useful plasmin solutions” (Novo Terapeutisk Laboratorium A/S, priority 1969, dated 1976)

By UniProt entry, the sequences of proteins in these tests, tags left out. Residues count along the entry.
UniProt P06867, 97-579 limits assumed: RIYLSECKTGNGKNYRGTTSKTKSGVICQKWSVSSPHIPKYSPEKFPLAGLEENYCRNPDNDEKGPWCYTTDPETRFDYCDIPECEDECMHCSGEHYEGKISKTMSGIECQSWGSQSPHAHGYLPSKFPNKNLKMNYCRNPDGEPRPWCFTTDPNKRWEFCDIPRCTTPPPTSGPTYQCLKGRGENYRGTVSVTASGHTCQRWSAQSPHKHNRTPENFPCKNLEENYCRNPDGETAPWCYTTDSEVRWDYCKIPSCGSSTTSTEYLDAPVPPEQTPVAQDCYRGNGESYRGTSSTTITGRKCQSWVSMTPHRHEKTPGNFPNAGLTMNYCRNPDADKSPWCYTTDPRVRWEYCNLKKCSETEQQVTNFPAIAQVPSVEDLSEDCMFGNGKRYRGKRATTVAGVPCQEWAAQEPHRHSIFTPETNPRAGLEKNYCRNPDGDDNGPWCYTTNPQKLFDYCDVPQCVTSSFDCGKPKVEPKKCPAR
UniProt P06867, 580-809 limits assumed: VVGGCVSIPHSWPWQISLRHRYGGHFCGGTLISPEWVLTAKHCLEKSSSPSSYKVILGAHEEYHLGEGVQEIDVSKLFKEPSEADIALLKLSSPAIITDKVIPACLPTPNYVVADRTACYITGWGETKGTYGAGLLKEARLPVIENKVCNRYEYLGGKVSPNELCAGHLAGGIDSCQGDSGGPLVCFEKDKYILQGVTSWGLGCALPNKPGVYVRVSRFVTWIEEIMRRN

Target: T1, plasmin originating from swine blood (Sus scrofa, UniProt P06867)
T1 construct: from tissue; host or cells: swine blood
Assay: Stabilizing effect of amino acids on plasmin solution, residual plasmin activity (casein) on storage
Type: biochemical
Details: 35.5°C, employed concentration 0.25 millimole per plasmin unit
Method: Usually the activity of plasmin solutions is expressed in the number of plasmin units per milliliter. However, no definition of a plasmin unit has until now been internationally adopted. Here and in the following one plasmin unit means the amount of plasmin causing in 20 minutes the formation of decomposition products being soluble in perchloric acid and having an extinction of 1 unit at 275 mμ under the following experimental conditions:
1 […] THE PLASMIN SOLUTION THE ACTIVITY OF WHICH IS TO BE […] THE PH of which is 7.5 is added to two test tubes each containing in 0.4 molar phosphate buffer (pH 7.50) 1 […] a 3 per cent's solution of Hammarsten Casein said solution having been preheated to 35.5°C. […] By the addition of the perchloric acid a precipitation takes place, and the two test tubes now stand for 20 minutes whereafter filtration two times through filtering paper (J. H. Munktells unrivalled Genuine Swedish Filtering Paper No. 0.9 cm) is carried out. The extinction of the two solutions is thereafter measured at 275 mμ in a Beckman D U Spectrophotometer (1 cm quartz cuvette), the value of the sample having stood for 2 minutes being used as blind value.
The stabilizing effect of a long series of amino acids has been examined in connection with plasmin originating from swine blood and dissolved in phosphate buffer (pH 7.5). […] If not, a saturated amino acid solution is employed.

For `NCCC[C@H](N)C(=O)O` [L-ornithine], which “stabilizing effect (in words)” value is on record?
The value was “excellent stabilizing effect”.
